No constants are given. Whether binding was seen depends on the method and setting. A result given as binding can be weak or reduced; the word gives no strength. For some assays here: Binding seen in cells or lysates may run through a third protein. For some assays here: Tags and fused reporters may be left off the sequences shown.
Experiments:
[1] = target: CIRV p36 replication protein (split ubiquitin bait) (Carnation Italian ringspot virus); assay: two-hybrid; split ubiquitin membrane yeast two-hybrid (MYTH) in wt (NMY51) yeast; bait p33 or p36 co-expressed with prey Vps21p forms; growth read-out
[2] = target: MBP-p33C (the C-terminal soluble portion of TBSV p33) (Tomato bushy stunt virus); assay: pull-down; MBP-affinity purified MBP-p33C or MBP-p36C as bait; captured 10xHis-tagged Vps21 or AtRab5B detected by western blot with anti-His antibody; only the target purified
[3] = target: MBP-p36C (the C-terminal soluble portion of CIRV p36) (Carnation Italian ringspot virus); assay: as above
[4] = target: CIRV p36-cYFP (Carnation Italian ringspot virus); assay: split reporter; BiFC in N. benthamiana leaves; nYFP-AtRab5B agro-infiltrated with p33-cYFP or p36-cYFP (OD600 0.4 each), confocal microscopy 2 d after agro-infiltration, GFP channel

| Binder | binding [1] | binding [2] | binding [3] | further results |
| --- | --- | --- | --- | --- |
| Vps21Q66L (split ubiquitin prey) (protein, UniProt P36017 1-210) MNTSVTSIKLVLLGEAAVGKSSIVLRFVSNDFAENKEPTIGAAFLTQRVTINEHTVKFEIWDTAGLERFASLAPMYYRNAQAALVVYDVTKPQSFIKARHWVKELHEQASKDIIIALVGNKIDMLQEGGERKVAREEGEKLAEEKGLLFFETSAKTGENVNDVFLGIGEKIPLKTAEEQNSASNERESNNQRVDLNAANDGTSANSACSC | binds | – | – | – |
| 10xHis-tagged yeast Vps21 (protein, UniProt P36017 1-210) MNTSVTSIKLVLLGEAAVGKSSIVLRFVSNDFAENKEPTIGAAFLTQRVTINEHTVKFEIWDTAGQERFASLAPMYYRNAQAALVVYDVTKPQSFIKARHWVKELHEQASKDIIIALVGNKIDMLQEGGERKVAREEGEKLAEEKGLLFFETSAKTGENVNDVFLGIGEKIPLKTAEEQNSASNERESNNQRVDLNAANDGTSANSACSC | – | binds | binds | – |
| Vps21S21L (split ubiquitin prey) (protein, UniProt P36017 1-210) MNTSVTSIKLVLLGEAAVGKLSIVLRFVSNDFAENKEPTIGAAFLTQRVTINEHTVKFEIWDTAGQERFASLAPMYYRNAQAALVVYDVTKPQSFIKARHWVKELHEQASKDIIIALVGNKIDMLQEGGERKVAREEGEKLAEEKGLLFFETSAKTGENVNDVFLGIGEKIPLKTAEEQNSASNERESNNQRVDLNAANDGTSANSACSC | binds | – | – | – |
| Vps21p, wild type (split ubiquitin prey) (protein, UniProt P36017 1-210) MNTSVTSIKLVLLGEAAVGKSSIVLRFVSNDFAENKEPTIGAAFLTQRVTINEHTVKFEIWDTAGQERFASLAPMYYRNAQAALVVYDVTKPQSFIKARHWVKELHEQASKDIIIALVGNKIDMLQEGGERKVAREEGEKLAEEKGLLFFETSAKTGENVNDVFLGIGEKIPLKTAEEQNSASNERESNNQRVDLNAANDGTSANSACSC | binds | – | – | – |
| 10xHis-tagged Arabidopsis Rab5B (protein, UniProt Q9SN68 1-200) MAAAGNKSINAKLVLLGDVGAGKSSLVLRFVKDQFVEFQESTIGAAFFSQTLAVNDATVKFEIWDTAGQERYHSLAPMYYRGAAAAIIVFDVTNQASFERAKKWVQELQAQGNPNMVMALAGNKSDLLDARKVTAEDAQTYAQENGLFFMETSAKTATNVKEIFYEIARRLPRVQPTENPTGMVLPDRAMDRAVSSSCCA | – | binds | binds | – |
| nYFP-AtRab5B (protein, UniProt Q9SN68 1-200) MAAAGNKSINAKLVLLGDVGAGKSSLVLRFVKDQFVEFQESTIGAAFFSQTLAVNDATVKFEIWDTAGQERYHSLAPMYYRGAAAAIIVFDVTNQASFERAKKWVQELQAQGNPNMVMALAGNKSDLLDARKVTAEDAQTYAQENGLFFMETSAKTATNVKEIFYEIARRLPRVQPTENPTGMVLPDRAMDRAVSSSCCA | – | – | – | binding [4]: binds |

Source: PMC5070881
